Data on two substances can be found in article PMC11237943.

The chains behind the UniProt entries cited, without tags or fusion partners.
UniProt Q9Y2R2: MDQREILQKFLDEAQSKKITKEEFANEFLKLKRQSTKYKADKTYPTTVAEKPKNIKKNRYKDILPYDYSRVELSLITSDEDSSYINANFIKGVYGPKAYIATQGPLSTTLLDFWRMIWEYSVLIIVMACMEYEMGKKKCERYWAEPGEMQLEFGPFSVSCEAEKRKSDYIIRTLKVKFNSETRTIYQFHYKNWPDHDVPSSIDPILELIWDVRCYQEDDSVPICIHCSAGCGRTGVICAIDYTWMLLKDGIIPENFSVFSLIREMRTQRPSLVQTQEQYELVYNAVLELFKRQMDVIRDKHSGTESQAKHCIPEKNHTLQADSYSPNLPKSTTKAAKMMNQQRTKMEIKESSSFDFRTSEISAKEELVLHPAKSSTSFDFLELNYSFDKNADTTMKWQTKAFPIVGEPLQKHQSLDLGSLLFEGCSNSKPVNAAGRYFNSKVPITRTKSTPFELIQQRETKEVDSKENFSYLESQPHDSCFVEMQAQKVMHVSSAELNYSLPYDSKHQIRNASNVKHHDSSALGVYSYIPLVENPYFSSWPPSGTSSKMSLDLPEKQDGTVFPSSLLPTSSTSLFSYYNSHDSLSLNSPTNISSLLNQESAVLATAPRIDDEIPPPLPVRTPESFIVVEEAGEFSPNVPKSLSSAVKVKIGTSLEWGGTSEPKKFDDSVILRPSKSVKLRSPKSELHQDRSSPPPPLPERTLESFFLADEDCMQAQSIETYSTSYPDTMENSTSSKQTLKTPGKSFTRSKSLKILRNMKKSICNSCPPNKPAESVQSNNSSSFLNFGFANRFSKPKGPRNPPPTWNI
UniProt P49840: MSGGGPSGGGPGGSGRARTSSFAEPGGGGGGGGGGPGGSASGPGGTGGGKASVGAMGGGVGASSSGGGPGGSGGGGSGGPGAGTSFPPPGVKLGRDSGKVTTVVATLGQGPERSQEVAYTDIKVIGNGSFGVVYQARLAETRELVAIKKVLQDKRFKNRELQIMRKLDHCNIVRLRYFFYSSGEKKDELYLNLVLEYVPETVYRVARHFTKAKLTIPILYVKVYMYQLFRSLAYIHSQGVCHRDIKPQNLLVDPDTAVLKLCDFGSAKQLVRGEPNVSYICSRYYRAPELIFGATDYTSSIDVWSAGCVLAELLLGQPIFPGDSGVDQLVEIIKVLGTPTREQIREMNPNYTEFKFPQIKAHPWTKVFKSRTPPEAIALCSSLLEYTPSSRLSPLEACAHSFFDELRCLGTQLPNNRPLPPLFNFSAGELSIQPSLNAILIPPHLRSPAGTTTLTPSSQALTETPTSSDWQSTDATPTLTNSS
UniProt P49841: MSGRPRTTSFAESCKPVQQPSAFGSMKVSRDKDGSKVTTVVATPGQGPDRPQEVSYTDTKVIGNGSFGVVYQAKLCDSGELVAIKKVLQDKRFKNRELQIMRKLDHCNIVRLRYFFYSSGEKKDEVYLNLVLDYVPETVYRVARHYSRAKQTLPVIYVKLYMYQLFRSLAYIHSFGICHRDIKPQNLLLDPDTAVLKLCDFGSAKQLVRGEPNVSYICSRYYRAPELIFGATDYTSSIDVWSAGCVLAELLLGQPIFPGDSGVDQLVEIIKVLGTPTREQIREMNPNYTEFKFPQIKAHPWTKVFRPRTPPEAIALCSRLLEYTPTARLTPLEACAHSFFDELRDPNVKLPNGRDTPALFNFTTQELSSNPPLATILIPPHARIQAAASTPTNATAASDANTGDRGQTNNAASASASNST

These are yes or no findings as the source states them, for the method shown. In cells and extracts the contact can be indirect. Here binding means that the protein was enriched with, or labelled near, the bait; the list need not be complete.

In the test the target is BioID2-PTPN22 WT (human) (UniProt Q9Y2R2). Nature of the test: proximity labelling; BioID2-PTPN22 WT or BioID2 empty vector stably expressed in PTPN22 KO Jurkat cells; biotinylated proteins pulled down on Streptavidin beads, GSK3 α/β detected by Western blot.

Take “glycogen synthase kinase 3 alpha (from UniProt P49840 1-483) (enzyme)”: the binding result is “binds”.
In the case of “glycogen synthase kinase 3 beta (from UniProt P49841 1-420) (enzyme)” it was “binds”.
